Results: publication PMC10138931

By UniProt entry, the sequences of proteins in these tests, tags left out. Where a name states a change or a piece, a line headed by the entry shows the natural chain unless it says otherwise.
UniProt P12956: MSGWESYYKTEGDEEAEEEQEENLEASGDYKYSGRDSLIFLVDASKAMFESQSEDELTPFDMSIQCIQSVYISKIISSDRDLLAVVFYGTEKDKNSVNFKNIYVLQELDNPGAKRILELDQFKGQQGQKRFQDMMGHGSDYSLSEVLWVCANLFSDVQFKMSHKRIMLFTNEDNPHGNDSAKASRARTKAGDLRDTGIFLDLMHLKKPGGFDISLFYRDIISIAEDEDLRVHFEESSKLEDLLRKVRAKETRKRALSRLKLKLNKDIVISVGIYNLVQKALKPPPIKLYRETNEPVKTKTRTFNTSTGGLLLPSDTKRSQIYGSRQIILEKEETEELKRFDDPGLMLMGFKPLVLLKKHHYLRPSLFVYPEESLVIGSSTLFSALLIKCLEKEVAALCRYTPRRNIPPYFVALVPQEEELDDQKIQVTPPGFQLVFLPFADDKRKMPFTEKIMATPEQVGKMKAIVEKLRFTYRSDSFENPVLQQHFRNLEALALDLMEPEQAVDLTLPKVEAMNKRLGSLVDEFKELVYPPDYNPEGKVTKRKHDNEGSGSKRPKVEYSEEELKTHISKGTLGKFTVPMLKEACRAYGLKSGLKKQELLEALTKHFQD

How the values were obtained:
Ku70 S155D-BioID2-HA = Ku70 S155D-BioID2-HA (UniProt P12956); test: proximity labelling; BioID2 in Flp-In T-REx 293 stable cell lines; 8 h doxycycline (1 ug/mL), then 50 uM biotin for 24 h; biotinylated proteins identified by LC-ESI-MS/MS; three biological replicates; filtered against parental T-REx 293 and NLS-BioID2 controls and by SAINTexpress
Ku70 S155A-BioID2-HA = Ku70 S155A-BioID2-HA (UniProt P12956); test: as above

B1: Borealin (protein, UniProt Q53HL2 1-280)
chain: MAPRKGSSRVAKTNSLRRRKLASFLKDFDREVEIRIKQIESDRQNLLKEVDNLYNIEILRLPKALREMNWLDYFALGGNKQALEEAATADLDITEINKLTAEAIQTPLKSAKTRKVIQVDEMIVEEEEEEENERKNLQTARVKRCPPSKKRTQSIQGKGKGKRSSRANTVTPAVGRLEVSMVKPTPGLTPRFDSRVFKTPGLRTPAAGERIYNISGNGSPLADSKEIFLTVPVGGGESLRLLASDLQRHSIAQLDPEALGNIKKLSNRLAQICSSIRTHK
In the case of B1, the binding (Ku70 S155D-BioID2-HA) is reported as “binds”.

B2: NUDCD2 (protein, UniProt Q8WVJ2 1-157)
chain: MSAPFEERSGVVPCGTPWGQWYQTLEEVFIEVQVPPGTRAQDIQCGLQSRHVALSVGGREILKGKLFDSTIADEGTWTLEDRKMVRIVLTKTKRDAANCWTSLLESEYAADPWVQDQMQRKLTLERFQKENPGFDFSGAEISGNYTKGGPDFSNLEK
In the case of B2, the binding (Ku70 S155A-BioID2-HA) is reported as “binds”.

No constants are given. Whether binding was seen depends on the method and setting. In cells and extracts the contact can be indirect. Here binding means that the protein was enriched with, or labelled near, the bait; the list need not be complete.
